# Screening data, single-dose tests

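Whole-cell growth test on Mycobacterium tuberculosis, read after 3 days in glucose-containing 7H9 medium; the read-out is not stated. Compounds at 50 µM. Direction is inferred from retests: higher values go with more growth inhibition. Size under these conditions: about 69,000 compounds, about 760 of them at 50% or above in at least one test.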

Values are the deposited “Percent Effect”, in %. The controls that fix the scale are not given in the record; negative values are as filed. The compounds are a random part of those screened. Two or more numbers in one place are separate tests of the same structure; such repeats can differ widely.

| Compound | effect |
|---|---|
| `CN(C(=O)CCOc1ccccc1)C1CCN(CC2CCOC2)CC1` (centres undefined) | 4.754 |
| `CC(NC(=O)N1CCC(n2cncn2)CC1)c1ccc(F)cc1` (centres undefined) | -5.859 & 2.8 |
| `CCc1nc(C)c(C(=O)NCCNc2ncnc3sccc23)s1` | 18.77 & -5.274 |
| `COc1ncccc1C1CC(=O)NCc2nc3ccccn3c21` (centres undefined) | 2.497 |
| `CC(C)c1cc(C(=O)NC2CCN(CC(N)=O)CC2)nn1C(C)(C)C` | 6.784 |
| `Cc1cc(C)n(CC2CCCN2Cc2c(C)noc2C)n1` (centres undefined) | 23.34 |
| `COc1ccnc(N2CCN(C(=O)c3csnn3)CC2)n1` | 27.85 & 7.378 |
| `CNC(=O)CCNC(=O)c1ccccc1N1CCOCC1` | 19.03 |
| `N#Cc1cccnc1NCCc1cc(F)cc2c1OCOC2` | -0.09099 |
| `Cc1ncc(CNC(=O)c2oc3ccccc3c2CN(C)C)s1` | -20.99 |
| `[H][C@]12CNC[C@@]1(C(=O)N(C)Cc1cnc(NC)nc1)CN(C(=O)C1CC1)C2` | -10.37 & -1.941 |
| `CCCN(C1CCc2ccccc2C1)S(C)(=O)=O` (centres undefined) | 11.68 |
| `CC[C@@]1(O)CCN(C(=O)c2cccc3cc(C)oc23)C[C@H]1O` | -9.436 & -72.92 |
| `Cc1nc(Nc2ccccn2)cc(C2CCCN2Cc2ncc[nH]2)n1` (centres undefined) | 25.18 |
| `COCC(=O)N1CCCCC1c1ccnc(Nc2ncc(C)s2)n1` (centres undefined) | 8.346 |
| `CN(C)CC(=O)N1CCc2cccc(S(=O)(=O)N3CCOCC3)c2C1` | 8.702 |
| `O=S(=O)(c1ccccc1)N1CCC[C@]2(C[C@@H](OCC3CC3)CO2)C1` | -4.868 |
| `Cc1cc(C)n(CCNCc2cc(-c3ccc(F)cc3)c[nH]c2=O)n1` | 9.132 |
| `CN(CC(=O)NCCCOc1ccc(F)cc1)c1ccc(C#N)cn1` | -12.35 |
| `CC(=O)N1CCCCC1c1ncnn1-c1ccc2nc(C)sc2c1` (centres undefined) | 22.57 |
| `COc1cc(CNC(=O)c2cc(Cl)ccc2F)ccn1` | -19.15 |
| `CN(C(=O)c1ccncc1)c1ccccc1S(C)(=O)=O` | 32.7 |
| `COC(=O)c1sccc1CN1CCN(C(=O)c2ccc(C)o2)CC1` | 32.1 |
| `CCC(C)(O)CNc1ccc(S(=O)(=O)C(F)F)cc1` (centres undefined) | -7.101 |
| `CCCn1nc2c(cc1=O)CN(Cc1nc(-c3ccco3)no1)CC2` | -31.56 |
| `COc1cc(Oc2cnc3ccccc3n2)ccc1CN1CCCC1` | 72.93 |
| `CCCc1nc(CN2CCCC2Cn2cccn2)cs1` (centres undefined) | 17.51 |
| `O=C(O)C(F)(F)F.O=C(O)C(F)(F)F.O=C1COC2(CCN(Cc3ccncc3)CC2)CN1` | -6.436 |
| `CCc1nc(CNC2CCN(S(C)(=O)=O)CC2)cs1` | -9.322 & 2.505 |
| `Cc1ccc(F)c(OC2(C(=O)O)CCN(C(=O)c3ccccc3)CC2)c1` | 26.57 |
| `COCCSCC(=O)NCc1ccnc(N(C)C)c1` | 0.7563 |
| `CCc1nc(CCNC(=O)Nc2cc(C(N)=O)ccc2OC)cs1` | 11.62 |
| `CC(=O)c1ccc(F)cc1-c1cc(NCCO)nc2[nH]ccc12` | -30.94 |
| `O=C(C1=CC2(CCN(CCO)CC2)c2ccccc21)N1CCCC1.O=C(O)C(F)(F)F` | -1.664 & -7.693 |
| `O=C(CNc1nc(C2CC2)ns1)N1CCc2sccc2C1` | -38.37 & -1.56 |
| `COCCN(C)c1nc(-c2ccncc2)nc2c1CCN(C(C)=O)C2` | 10.25 & -6.232 |
| `O=C(CN1CCCCCC1)N1CCc2nnc(C3CCCNC3)n2CC1` (centres undefined) | 26.17 |
| `Cc1ccc(NC(=O)c2cnc(N3CCN(C)CC3)nc2C)cc1C` | 15.93 |
| `Cc1nn(C)c(C)c1CC(=O)NCc1ccnc(N2CCOCC2)c1` | -7.491 |
| `O=C(O)C(F)(F)F.O=C(O)C(F)(F)F.[H][C@@]12CCCO[C@]1([H])[C@H](N1CCOCC1)CN(C(=O)c1ccc(C)nc1)C2` | -32.97 & 0.5779 |
| `Cc1nn(C)c(Cl)c1C1CCCN1C(=O)c1cnc[nH]1` (centres undefined) | 10.53 |
| `CN(C)c1ccc(C(=O)N2CCCC(n3cccn3)C2)cn1` (centres undefined) | -12.6 |
| `O=C(c1cscn1)N1CCC(Cc2cnc3[nH]ccc3c2)C1` (centres undefined) | -12.57 |
| `COc1cccc(CNC(C)c2ccc(-n3ccnc3)cc2)c1OC.Cl` (centres undefined) | 22.5 |
| `Cn1c(SCC2OCCc3ccccc32)n[nH]c1=O` (centres undefined) | -11.68 |
| `CCN1CCOC(CNCc2ccccc2OCc2ccncc2)C1` (centres undefined) | -16.19 |
| `CC(Nc1ncnc2c1CCNCC2)c1nc2c(s1)CCCC2` (centres undefined) | 4.835 |
| `CNc1nc(C(=O)N2CCCN(c3ccnc(C)c3)CC2)cs1` | -19.48 & -2.653 |
| `CCCn1c(C)c(CC(=O)NCCOC)c2c1CC(C)(C)CC2=O` | -29.4 |
| `CC(=O)NCCc1ccc(S(=O)(=O)Nc2ccc(C)cc2F)s1` | 4.038 |
| `COC(=O)c1sc(C(NC(=O)c2ccccc2)C2CC2)nc1C` (centres undefined) | -1.456 & 7.598 |
| `Cc1cccc(-c2nc(CN3CC(n4nc(C)cc4C)C3)no2)c1` | 16.55 |
| `CC(=O)N1CCC2(CCCN(C(=O)c3ccc(Cl)c(C(F)(F)F)c3)C2)C1` (centres undefined) | -6.961 |
| `CC(=O)NCCc1nc(C(C)C)nn1-c1ccncc1C` | 21.26 |
| `Cc1cc2nc(CO[C@H]3CN(C4CCN(C)CC4)C[C@H]3F)[nH]c2cc1C` | -3.03 & -16.52 |
| `CN(CCC(F)(F)F)C(=O)[C@H]1CSCN1C(=O)OC(C)(C)C` | -3.963 & 0.4805 |
| `Cc1ccc(C(=O)N2CCOC(c3nc(-c4ncccn4)no3)C2)cc1` (centres undefined) | 16.84 |
| `Cc1ccc(S(=O)(=O)NC[C@H]2OC[C@@H](NCc3ccccc3)[C@@H]2O)cc1` | -12 & 0.7045 |
| `Cc1cc(Br)oc1C(=O)N1CCCN(CC(N)=O)CC1` | -36.48 |
| `O=C(O)C(F)(F)F.O=C(O)C(F)(F)F.[H][C@@]12CCCO[C@]1([H])[C@H](N(C)Cc1ccco1)CN(Cc1ccsc1)C2` | -8.782 |
| `O=C(NCC(O)CO)Nc1cc(Br)ccc1F` (centres undefined) | -21.18 |
| `COc1ncccc1CNC(=O)c1cccc(C)n1` | -4.576 |
| `O=C(O)C(F)(F)F.[H][C@@]12CNC(=O)[C@H](C)[C@]1([H])CN(Cc1cccc(F)c1)C2` | -22.9 |
| `COc1ccc(C(=O)N(C)Cc2nnc3ccccn23)c(OC)c1OC` | -5.254 |
| `Cc1cnc(CNc2ccc(C(=O)NCc3ccco3)cc2C)o1` | 3.873 & -1.136 |
| `O=C(O)C(F)(F)F.[H][C@]12CCC(=O)N(Cc3ccncc3)[C@@]1([H])CCN2C(=O)CC1CC1` | 5.937 |
| `Cn1ncc2c1C(COCC1CC1)CN(S(=O)(=O)C1CC1)C2` (centres undefined) | 4.384 |
| `c1ccc(-n2cnnc2CCCN2CCOCC2)cc1` | 11.53 |
| `CC(C)NC(=O)Nc1ccc(CS(C)(=O)=O)cc1` | -6.052 |
| `CCn1ncc(C(=O)NCCc2nc(-c3cccnc3)n[nH]2)c1C` | -16.82 |
| `COc1ncc(C2(O)CCN(Cc3cc(F)cc(F)c3)CC2)c(OC)n1` | 17.93 |
| `CCCc1noc(CN2CCC(NC(=O)c3ccc(C)s3)CC2)n1` | 21.84 |
| `Cc1csc(CNc2cnn(CC(C)C)c2)n1` | 5.416 |
| `CN(Cc1ncc[nH]1)c1nc(-c2ccccn2)nc2c1CCNCC2` | 28.88 & 8.711 |
| `CCS(=O)(=O)N1Cc2[nH]nc(COCc3cccnc3)c2C1.O=C(O)C(F)(F)F` | 16.91 |
| `CC(C)c1nccn1CCCNC(=O)c1ccc(-c2ccncc2)nc1` | -26.88 |
| `CNC(=O)c1cc2c(nc1N(C)C)CCN(C)CC2.O=C(O)C(F)(F)F.O=C(O)C(F)(F)F` | 31.91 & 0.7089 |
| `CC(C)(C)c1n[nH]c(C2CN(C(=O)c3cnc[nH]3)CCO2)n1` (centres undefined) | 18.64 |
| `Cc1cccc2cc(CO)c(N3Cc4cnc(C(C)(C)C)nc4C3)nc12` | 92.11 & 5.848 |

Once more, the final 8:

CCCc1noc(CN2CCC(NC(=O)c3ccc(C)s3)CC2)n1 gave 21.84%.
Cc1csc(CNc2cnn(CC(C)C)c2)n1 gave 5.416%.
CN(Cc1ncc[nH]1)c1nc(-c2ccccn2)nc2c1CCNCC2 gave 28.88% & 8.711%.
CCS(=O)(=O)N1Cc2[nH]nc(COCc3cccnc3)c2C1.O=C(O)C(F)(F)F gave 16.91%.
CC(C)c1nccn1CCCNC(=O)c1ccc(-c2ccncc2)nc1 gave -26.88%.
CNC(=O)c1cc2c(nc1N(C)C)CCN(C)CC2.O=C(O)C(F)(F)F.O=C(O)C(F)(F)F gave 31.91% & 0.7089%.
CC(C)(C)c1n[nH]c(C2CN(C(=O)c3cnc[nH]3)CCO2)n1 (centres undefined) gave 18.64%.
Cc1cccc2cc(CO)c(N3Cc4cnc(C(C)(C)C)nc4C3)nc12 gave 92.11% & 5.848%.

From ChEMBL document CHEMBL3988442, “University of Dundee, Small-Polar-MMV Screening Library” (2021).